# Measured values reported in paper PMC6327983, “Discovery of cyanopyridine scaffold as novel indoleamine-2,3-dioxygenase 1 (IDO1) inhibitors through virtual screening and preliminary hit optimisation” (Journal of Enzyme Inhibition and Medicinal Chemistry, 2019).
# Assay: Assay interference check at 480 nm with kynurenine, without IDO1 protein
# Details: absorbance at 480 nm, p-DMAB, different kynurenine concentrations, no IDO1
row,Structure (SMILES),Interference in the signal of biological assay
1,CC(C)c1ccc(C#N)c(SCC(=O)Nc2ccc(F)cc2)n1 [LVS-019],no interference
2,"N#Cc1ccc(C(F)(F)F)nc1SCC(=O)Nc1ccc(F)c(Cl)c1 [LBJ-10, N-(3-chloro-4-fluorophenyl)-2-((3-cyano-6-(trifluoromethyl)pyridin-2-yl)thio) acetamide]",no interference
